Reference: patent US9409122B2, “Gas capture process” (Commonwealth Scientific and Industrial Research Organisation, priority 2011, dated 2016)

Legend:
[1] = CO2 absorption-desorption (CO2 sequestration in 10% CO2 and 90% N2), quantitative 13C NMR; type: physicochemical; conditions: for Cyclic capacity in CO2 absorption/desorption / Cyclic capacity in CO2 absorption/desorption, Molar capacity: difference between maximum and minimum CO2 loading, absorption 40° C., desorption 90° C.; for Maximum CO2 loading, Molar capacity: molar ratio of CO2 to amine, 10% CO2 and 90% N2, 18 hours; for Maximum CO2 loading, Molar capacity / Maximum CO2 loading: 2M amine, 40° C.; for Maximum CO2 loading: weight loading calculated from molar ratio, 10% CO2 and 90% N2
[2] = CO2 absorption at 40° C. with CO2 gas (99%); type: physicochemical; conditions: for capacity for CO2 loading: on a mol % basis, absorption at 40° C., CO2 gas (99%), FIG. 2(a)

For `CCN1CCC(N)CC1`, the “Cyclic capacity in CO2 absorption/desorption” value [1] was 0.16 g/g, the “Cyclic capacity in CO2 absorption/desorption, Molar capacity” value [1] was 0.46 and the “Maximum CO2 loading, Molar capacity” value [1] was 1.14. For the same compound, the “Maximum CO2 loading” value [1] was 0.39 g/g.

With `CN(CCCO)C1CCNCC1` the “Cyclic capacity in CO2 absorption/desorption” value [1] was 0.09 g/g, the “Cyclic capacity in CO2 absorption/desorption, Molar capacity” value [1] was 0.36 and the “Maximum CO2 loading, Molar capacity” value [1] was 1.07. The “Maximum CO2 loading” value [1] was 0.27 g/g.

For `OCCCNC1CCNCC1`, the “Cyclic capacity in CO2 absorption/desorption” value [1] was 0.09 g/g, the “Cyclic capacity in CO2 absorption/desorption, Molar capacity” value [1] was 0.34 and the “Maximum CO2 loading, Molar capacity” value [1] was 1.05. The “Maximum CO2 loading” value [1] was 0.29 g/g.

In the case of `OCCCCCCNC1CCNCC1`, the “Cyclic capacity in CO2 absorption/desorption” value [1] is reported as 0.10 g/g, the “Cyclic capacity in CO2 absorption/desorption, Molar capacity” value [1] is reported as 0.46 and the “Maximum CO2 loading, Molar capacity” value [1] is reported as 1.15. The “Maximum CO2 loading” value [1] was 0.25 g/g.

In the case of `NC1CCN(CCO)CC1` [drawing 34], the “Cyclic capacity in CO2 absorption/desorption” value [1] is reported as 0.14 g/g, the “Cyclic capacity in CO2 absorption/desorption, Molar capacity” value [1] is reported as 0.45 and the “Maximum CO2 loading, Molar capacity” value [1] is reported as 1.02. For the same compound, the “Maximum CO2 loading” value [1] was 0.31 g/g.

With `CCCN1CCC(N)CC1` [drawing 33] the “Cyclic capacity in CO2 absorption/desorption” value [1] was 0.19 g/g, the “Cyclic capacity in CO2 absorption/desorption, Molar capacity” value [1] was 0.61 and the “Maximum CO2 loading, Molar capacity” value [1] was 1.17. For the same compound, the “Maximum CO2 loading” value [1] was 0.36 g/g.

For `NC1CCN(CCCCCCO)CC1`, the “Cyclic capacity in CO2 absorption/desorption” value [1] was 0.12 g/g, the “Cyclic capacity in CO2 absorption/desorption, Molar capacity” value [1] was 0.56 and the “Maximum CO2 loading, Molar capacity” value [1] was 0.95. For the same compound, the “Maximum CO2 loading” value [1] was 0.21 g/g.

With `CN(C)CCCNC1CCNCC1` the “Cyclic capacity in CO2 absorption/desorption” value [1] was 0.18 g/g, the “Cyclic capacity in CO2 absorption/desorption, Molar capacity” value [1] was 0.69 and the “Maximum CO2 loading, Molar capacity” value [1] was 1.50. The “Maximum CO2 loading” value [1] was 0.39 g/g.

In the case of `O=C(O)CNCC1CCNCC1`, the “Cyclic capacity in CO2 absorption/desorption” value [1] is reported as 0.15 g/g, the “Cyclic capacity in CO2 absorption/desorption, Molar capacity” value [1] is reported as 0.52 and the “Maximum CO2 loading, Molar capacity” value [1] is reported as 0.70. The “Maximum CO2 loading” value [1] was 0.19 g/g.

In the case of `OCCNC1CCNCC1` [Compound 3, 4-ethanolaminopiperidine], the “capacity for CO2 loading” value [2] is reported as 180%.

With `OCCNC1CCNCC1` [drawing 24] the “Cyclic capacity in CO2 absorption/desorption” value [1] was 0.15 g/g, the “Cyclic capacity in CO2 absorption/desorption, Molar capacity” value [1] was 0.41 and the “Maximum CO2 loading, Molar capacity” value [1] was 1.02. For the same compound, the “Maximum CO2 loading” value [1] was 0.35 g/g.

With `CN(CCO)CC1CCNCC1` the “Cyclic capacity in CO2 absorption/desorption” value [1] was 0.11 g/g, the “Cyclic capacity in CO2 absorption/desorption, Molar capacity” value [1] was 0.44 and the “Maximum CO2 loading, Molar capacity” value [1] was 1.13. The “Maximum CO2 loading” value [1] was 0.29 g/g.

In the case of `CN(CCCCCCO)C1CCNCC1`, the “Cyclic capacity in CO2 absorption/desorption” value [1] is reported as 0.10 g/g, the “Cyclic capacity in CO2 absorption/desorption, Molar capacity” value [1] is reported as 0.47 and the “Maximum CO2 loading, Molar capacity” value [1] is reported as 1.01. The “Maximum CO2 loading” value [1] was 0.21 g/g.

In the case of `NC1CCN(CCCO)CC1`, the “Cyclic capacity in CO2 absorption/desorption” value [1] is reported as 0.10 g/g, the “Cyclic capacity in CO2 absorption/desorption, Molar capacity” value [1] is reported as 0.35 and the “Maximum CO2 loading, Molar capacity” value [1] is reported as 1.00. For the same compound, the “Maximum CO2 loading” value [1] was 0.28 g/g.

For `OCCCCCCNCC1CCNCC1`, the “Cyclic capacity in CO2 absorption/desorption” value [1] was 0.08 g/g, the “Cyclic capacity in CO2 absorption/desorption, Molar capacity” value [1] was 0.39 and the “Maximum CO2 loading, Molar capacity” value [1] was 0.98. The “Maximum CO2 loading” value [1] was 0.20 g/g.

For `NC1CCN(CCO)CC1` [Compound 1, 1-ethanol-4-aminopiperidine], the “capacity for CO2 loading” value [2] was 200%.

For `CCCN1CCC(N)CC1` [Compound 2, 1-propyl-4-aminopiperidine], the “capacity for CO2 loading” value [2] was 180%.

For `CCNC1CCNCC1`, the “Cyclic capacity in CO2 absorption/desorption” value [1] was 0.15 g/g, the “Cyclic capacity in CO2 absorption/desorption, Molar capacity” value [1] was 0.43 and the “Maximum CO2 loading, Molar capacity” value [1] was 1.46. For the same compound, the “Maximum CO2 loading” value [1] was 0.51 g/g.

In the case of `CCN(C)CC1CCNCC1`, the “Cyclic capacity in CO2 absorption/desorption” value [1] is reported as 0.19 g/g, the “Cyclic capacity in CO2 absorption/desorption, Molar capacity” value [1] is reported as 0.52 and the “Maximum CO2 loading, Molar capacity” value [1] is reported as 1.26. For the same compound, the “Maximum CO2 loading” value [1] was 0.41 g/g.

In the case of `CCNCC1CCNCC1`, the “Cyclic capacity in CO2 absorption/desorption” value [1] is reported as 0.12 g/g, the “Cyclic capacity in CO2 absorption/desorption, Molar capacity” value [1] is reported as 0.38 and the “Maximum CO2 loading, Molar capacity” value [1] is reported as 1.58. The “Maximum CO2 loading” value [1] was 0.49 g/g.

In the case of `CN(CCO)C1CCNCC1`, the “Cyclic capacity in CO2 absorption/desorption” value [1] is reported as 0.08 g/g, the “Cyclic capacity in CO2 absorption/desorption, Molar capacity” value [1] is reported as 0.28 and the “Maximum CO2 loading, Molar capacity” value [1] is reported as 1.05. The “Maximum CO2 loading” value [1] was 0.29 g/g.

In the case of `CN(C)CNCC1CCNCC1`, the “Cyclic capacity in CO2 absorption/desorption” value [1] is reported as 0.13 g/g, the “Cyclic capacity in CO2 absorption/desorption, Molar capacity” value [1] is reported as 0.53 and the “Maximum CO2 loading, Molar capacity” value [1] is reported as 1.80. The “Maximum CO2 loading” value [1] was 0.43 g/g.

In the case of `CCN(C)C1CCNCC1`, the “Cyclic capacity in CO2 absorption/desorption” value [1] is reported as 0.13 g/g, the “Cyclic capacity in CO2 absorption/desorption, Molar capacity” value [1] is reported as 0.43 and the “Maximum CO2 loading, Molar capacity” value [1] is reported as 1.30. For the same compound, the “Maximum CO2 loading” value [1] was 0.40 g/g.

With `CCCNC1CCNCC1` [Compound 4, 4-Propylaminopiperidine] the “observation during CO2 absorption” value ([2]; 40° C., solid not measurable by 13C NMR) was “formed a large quantity of bicarbonate solid”.

With `NC1CCNCC1` [4-aminopiperidine, reference compound] the “capacity for CO2 loading” value [2] was 155%.

In the case of `OCCNCC1CCNCC1`, the “Cyclic capacity in CO2 absorption/desorption” value [1] is reported as 0.10 g/g, the “Cyclic capacity in CO2 absorption/desorption, Molar capacity” value [1] is reported as 0.35 and the “Maximum CO2 loading, Molar capacity” value [1] is reported as 1.24. For the same compound, the “Maximum CO2 loading” value [1] was 0.38 g/g.
